These results are taken from patent US20170128554A1.

No constants are given. Whether binding was seen depends on the method and setting. In cells and extracts the contact can be indirect. Some results given as binding are weak or reduced against the parent protein; the word gives no strength.

The target in experiment [1] is T1, Fetuin (denatured; sialylated complex N-linked glycans) (UniProt P12763).
T1 sequence (sialylated complex N-linked glycans, looked up): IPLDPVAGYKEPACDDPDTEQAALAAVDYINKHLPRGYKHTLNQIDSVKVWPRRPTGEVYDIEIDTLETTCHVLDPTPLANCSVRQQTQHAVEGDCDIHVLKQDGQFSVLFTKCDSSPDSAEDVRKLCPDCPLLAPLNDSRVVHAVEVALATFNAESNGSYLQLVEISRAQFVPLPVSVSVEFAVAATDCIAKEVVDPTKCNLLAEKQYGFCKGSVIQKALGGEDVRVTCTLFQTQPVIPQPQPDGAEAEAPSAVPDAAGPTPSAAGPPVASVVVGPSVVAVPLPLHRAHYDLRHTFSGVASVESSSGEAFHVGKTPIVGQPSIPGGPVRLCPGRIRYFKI
Put plainly: pull-down of Fbs from cell lysate by Affigel-fetuin beads in low salt (50 mM ammonium acetate pH 7.5), SDS-PAGE, fold change against wt; lysate panel as loading control.

The target in experiment [2] is T1, Fetuin (denatured; sialylated complex N-linked glycans). Put plainly: pull-down of Fbs from cell lysate by denatured fetuin on Affigel-15 beads in low salt, SDS-PAGE, ImageJ fold change against wt.
For experiment [3] the target is unchanged. Put plainly: fetuin pull-down from cell lysates, low salt buffer, SDS-PAGE.
For experiment [4] the target is unchanged. Description: fetuin pull-down, low salt buffer, SDS-PAGE.

B1: wtFbs as used in the fetuin pull-down from cell lysates (Example 15) (protein, not shown: large carriers)
chain: FYFLSKRRRNLLRNPCGEEDLEGWCDVEHGGDGWRVEELPGDSGVEFTHDESVKKYFASSFEWCRKAQVIDLQAEGYWEELLDTTQPAIVVKDWYSGRSDAGCLYELTVKLLSEHENVLAEFSSGQVAVPQDSDGGGWMEISHTFTDYGPGVRFVRFEHGGQDSVYWKGWFGARVTNSSVWVEP
In the case of B1, the binding entry in experiment [1], in experiment [2] and in experiment [3] was “binds” each time.

B2: Fbs mutant YR (protein, not shown: large carriers)
chain: FYFLSKRRRNLLRNPCGEEDLEGWCDVEHGGDGWRVEELPGDSGVEFTHDESVKKYFASSYRWCRKAQVIDLQAEGYWEELLDTTQPAIVVKDWYSGRSDAGCLYELTVKLLSEHENVLAEFSSGQVAVPQDSDGGGWMEISHTFTDYGPGVRFVRFEHGGQDSVYWKGWFGARVTNSSVWVEP
Turning to B2, the binding result in experiment [1], in experiment [2] and in experiment [4] was “binds” each time.

B3: Fbs mutant S155G+YR (GYR) as used in the fetuin pull-down from cell lysates (Example 15) (protein, not shown: large carriers)
chain: FYFLSKRRRNLLRNPCGEEDLEGWCDVEHGGDGWRVEELPGDGGVEFTHDESVKKYFASSYRWCRKAQVIDLQAEGYWEELLDTTQPAIVVKDWYSGRSDAGCLYELTVKLLSEHENVLAEFSSGQVAVPQDSDGGGWMEISHTFTDYGPGVRFVRFEHGGQDSVYWKGWFGARVTNSSVWVEP
With B3, the binding result in experiment [1] and in experiment [4] was “binds” in each case.

B4: Fbs mutant PPR (protein, not shown: large carriers)
chain: FYFLSKRRRNLLRNPCGEEDLEGWCDVEHGGDGWRVEELPGPPRVEFTHDESVKKYFASSFEWCRKAQVIDLQAEGYWEELLDTTQPAIVVKDWYSGRSDAGCLYELTVKLLSEHENVLAEFSSGQVAVPQDSDGGGWMEISHTFTDYGPGVRFVRFEHGGQDSVYWKGWFGARVTNSSVWVEP
For the molecule B4, the binding result in experiment [1], in experiment [2] and in experiment [4] was “binds” in each case.

B5: Fbs mutant PPG (protein, not shown: large carriers)
chain: FYFLSKRRRNLLRNPCGEEDLEGWCDVEHGGDGWRVEELPGPPGVEFTHDESVKKYFASSFEWCRKAQVIDLQAEGYWEELLDTTQPAIVVKDWYSGRSDAGCLYELTVKLLSEHENVLAEFSSGQVAVPQDSDGGGWMEISHTFTDYGPGVRFVRFEHGGQDSVYWKGWFGARVTNSSVWVEP
Consider B5, for which the binding entry in experiment [2] and in experiment [4] was “binds” each time.

B6: Fbs mutant PPS (protein, not shown: large carriers)
chain: FYFLSKRRRNLLRNPCGEEDLEGWCDVEHGGDGWRVEELPGPPSVEFTHDESVKKYFASSFEWCRKAQVIDLQAEGYWEELLDTTQPAIVVKDWYSGRSDAGCLYELTVKLLSEHENVLAEFSSGQVAVPQDSDGGGWMEISHTFTDYGPGVRFVRFEHGGQDSVYWKGWFGARVTNSSVWVEP
In the case of B6, the binding result in experiment [2] and in experiment [4] was “binds” throughout.
